Laboratory results published in article PMC3694860.
Where two headings read alike, the source gives them in different places. These are yes or no findings as the source states them, for the method shown. Binding seen in cells or lysates may run through a third protein. Some binding calls cover weakened binding; strength is not graded here. One block for each molecule: values may come before it.

Experiments:
[1] = target: T1, NS1-binding protein (NS1-BP) (human (endogenous in HeLa and A549)) (UniProt Q9Y6Y0)
T1 sequence: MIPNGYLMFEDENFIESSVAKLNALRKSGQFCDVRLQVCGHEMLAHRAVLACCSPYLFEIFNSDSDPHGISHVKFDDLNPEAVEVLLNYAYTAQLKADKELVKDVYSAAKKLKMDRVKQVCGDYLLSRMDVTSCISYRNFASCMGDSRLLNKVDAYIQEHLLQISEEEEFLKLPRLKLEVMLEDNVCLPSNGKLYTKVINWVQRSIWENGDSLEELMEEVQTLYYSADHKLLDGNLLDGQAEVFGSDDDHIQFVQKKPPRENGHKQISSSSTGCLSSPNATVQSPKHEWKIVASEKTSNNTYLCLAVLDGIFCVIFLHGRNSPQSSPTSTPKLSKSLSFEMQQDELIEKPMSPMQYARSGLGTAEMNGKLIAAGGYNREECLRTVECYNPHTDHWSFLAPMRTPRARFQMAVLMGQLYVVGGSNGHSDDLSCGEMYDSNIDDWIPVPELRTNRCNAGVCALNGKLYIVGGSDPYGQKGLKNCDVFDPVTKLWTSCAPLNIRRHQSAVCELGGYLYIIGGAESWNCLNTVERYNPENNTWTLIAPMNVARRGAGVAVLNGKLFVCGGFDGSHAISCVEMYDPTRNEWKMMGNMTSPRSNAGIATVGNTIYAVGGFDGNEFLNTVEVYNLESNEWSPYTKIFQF

[2] = target: T1, NS1-binding protein (NS1-BP) (human (endogenous in HeLa and A549)); remark: listed apart in the source

- binding [1]: binds
- binding [2]: binds
Molecule: heterogeneous nuclear ribonucleoprotein K (hnRNP K) (from UniProt P61978 1-463)

- binding [1]: binds
- binding [2]: binds
B1: heterogeneous nuclear ribonucleoprotein M (hnRNP M) (protein, UniProt P52272 1-730)
chain: MAAGVEAAAEVAATEIKMEEESGAPGVPSGNGAPGPKGEGERPAQNEKRKEKNIKRGGNRFEPYANPTKRYRAFITNIPFDVKWQSLKDLVKEKVGEVTYVELLMDAEGKSRGCAVVEFKMEESMKKAAEVLNKHSLSGRPLKVKEDPDGEHARRAMQKVMATTGGMGMGPGGPGMITIPPSILNNPNIPNEIIHALQAGRLGSTVFVANLDYKVGWKKLKEVFSMAGVVVRADILEDKDGKSRGIGTVTFEQSIEAVQAISMFNGQLLFDRPMHVKMDERALPKGDFFPPERPQQLPHGLGGIGMGLGPGGQPIDANHLNKGIGMGNIGPAGMGMEGIGFGINKMGGMEGPFGGGMENMGRFGSGMNMGRINEILSNALKRGEIIAKQGGGGGGGSVPGIERMGPGIDRLGGAGMERMGAGLGHGMDRVGSEIERMGLVMDRMGSVERMGSGIERMGPLGLDHMASSIERMGQTMERIGSGVERMGAGMGFGLERMAAPIDRVGQTIERMGSGVERMGPAIERMGLSMERMVPAGMGAGLERMGPVMDRMATGLERMGANNLERMGLERMGANSLERMGLERMGANSLERMGPAMGPALGAGIERMGLAMGGGGGASFDRAIEMERGNFGGSFAGSFGGAGGHAPGVARKACQIFVRNLPFDFTWKMLKDKFNECGHVLYADIKMENGKSKGCGVVKFESPEVAERACRMMNGMKLSGREIDVRIDRNA
